Results are given in words; binding and its absence hold for the method and conditions named. Binding seen in cells or lysates may run through a third protein. A yes stands for co-enrichment or nearness to the bait. Other partners may have been found.
Molecular target: T1, Laminin-5γ-2 (LAMC2) (human (endogenous in A549 and MCF7)) (UniProt Q13753)
T1 sequence: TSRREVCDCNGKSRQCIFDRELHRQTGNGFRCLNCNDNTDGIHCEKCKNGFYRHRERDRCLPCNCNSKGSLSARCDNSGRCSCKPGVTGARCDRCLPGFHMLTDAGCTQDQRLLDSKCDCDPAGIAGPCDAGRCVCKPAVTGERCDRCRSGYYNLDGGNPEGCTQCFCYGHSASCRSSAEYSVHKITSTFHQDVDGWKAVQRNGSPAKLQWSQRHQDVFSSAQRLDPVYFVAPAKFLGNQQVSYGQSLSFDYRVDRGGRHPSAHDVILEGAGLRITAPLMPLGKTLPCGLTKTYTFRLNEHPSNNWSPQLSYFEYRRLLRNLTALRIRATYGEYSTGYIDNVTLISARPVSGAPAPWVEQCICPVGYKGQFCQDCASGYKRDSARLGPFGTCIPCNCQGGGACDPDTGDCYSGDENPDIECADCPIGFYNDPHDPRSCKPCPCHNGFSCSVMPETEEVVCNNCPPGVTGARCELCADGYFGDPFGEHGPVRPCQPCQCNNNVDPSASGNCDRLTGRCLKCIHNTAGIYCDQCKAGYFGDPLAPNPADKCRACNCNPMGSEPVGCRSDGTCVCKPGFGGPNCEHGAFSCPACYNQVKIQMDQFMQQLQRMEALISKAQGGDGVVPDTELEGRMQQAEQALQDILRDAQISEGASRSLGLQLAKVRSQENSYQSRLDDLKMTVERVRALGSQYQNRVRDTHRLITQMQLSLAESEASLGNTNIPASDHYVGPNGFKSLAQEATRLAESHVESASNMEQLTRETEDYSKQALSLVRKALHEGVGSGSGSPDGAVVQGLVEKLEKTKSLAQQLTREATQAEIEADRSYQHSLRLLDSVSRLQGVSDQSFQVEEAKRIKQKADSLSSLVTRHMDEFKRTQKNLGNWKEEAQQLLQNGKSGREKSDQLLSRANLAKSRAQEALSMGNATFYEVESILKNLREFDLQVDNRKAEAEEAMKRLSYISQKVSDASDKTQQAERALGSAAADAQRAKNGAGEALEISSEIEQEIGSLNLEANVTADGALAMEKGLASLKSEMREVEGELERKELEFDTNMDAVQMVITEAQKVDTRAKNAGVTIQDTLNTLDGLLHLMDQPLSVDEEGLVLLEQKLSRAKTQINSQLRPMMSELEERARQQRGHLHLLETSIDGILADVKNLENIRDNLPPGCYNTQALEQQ
Test: affinity purification with mass spectrometry; immunoprecipitation of LAMC2 from A549 cells coupled to mass spectrometry (IP-MS); co-purified proteins also shown by silver staining

Protein sequences, listed by entry. Tags and fused reporters are not part of them.
UniProt P35579: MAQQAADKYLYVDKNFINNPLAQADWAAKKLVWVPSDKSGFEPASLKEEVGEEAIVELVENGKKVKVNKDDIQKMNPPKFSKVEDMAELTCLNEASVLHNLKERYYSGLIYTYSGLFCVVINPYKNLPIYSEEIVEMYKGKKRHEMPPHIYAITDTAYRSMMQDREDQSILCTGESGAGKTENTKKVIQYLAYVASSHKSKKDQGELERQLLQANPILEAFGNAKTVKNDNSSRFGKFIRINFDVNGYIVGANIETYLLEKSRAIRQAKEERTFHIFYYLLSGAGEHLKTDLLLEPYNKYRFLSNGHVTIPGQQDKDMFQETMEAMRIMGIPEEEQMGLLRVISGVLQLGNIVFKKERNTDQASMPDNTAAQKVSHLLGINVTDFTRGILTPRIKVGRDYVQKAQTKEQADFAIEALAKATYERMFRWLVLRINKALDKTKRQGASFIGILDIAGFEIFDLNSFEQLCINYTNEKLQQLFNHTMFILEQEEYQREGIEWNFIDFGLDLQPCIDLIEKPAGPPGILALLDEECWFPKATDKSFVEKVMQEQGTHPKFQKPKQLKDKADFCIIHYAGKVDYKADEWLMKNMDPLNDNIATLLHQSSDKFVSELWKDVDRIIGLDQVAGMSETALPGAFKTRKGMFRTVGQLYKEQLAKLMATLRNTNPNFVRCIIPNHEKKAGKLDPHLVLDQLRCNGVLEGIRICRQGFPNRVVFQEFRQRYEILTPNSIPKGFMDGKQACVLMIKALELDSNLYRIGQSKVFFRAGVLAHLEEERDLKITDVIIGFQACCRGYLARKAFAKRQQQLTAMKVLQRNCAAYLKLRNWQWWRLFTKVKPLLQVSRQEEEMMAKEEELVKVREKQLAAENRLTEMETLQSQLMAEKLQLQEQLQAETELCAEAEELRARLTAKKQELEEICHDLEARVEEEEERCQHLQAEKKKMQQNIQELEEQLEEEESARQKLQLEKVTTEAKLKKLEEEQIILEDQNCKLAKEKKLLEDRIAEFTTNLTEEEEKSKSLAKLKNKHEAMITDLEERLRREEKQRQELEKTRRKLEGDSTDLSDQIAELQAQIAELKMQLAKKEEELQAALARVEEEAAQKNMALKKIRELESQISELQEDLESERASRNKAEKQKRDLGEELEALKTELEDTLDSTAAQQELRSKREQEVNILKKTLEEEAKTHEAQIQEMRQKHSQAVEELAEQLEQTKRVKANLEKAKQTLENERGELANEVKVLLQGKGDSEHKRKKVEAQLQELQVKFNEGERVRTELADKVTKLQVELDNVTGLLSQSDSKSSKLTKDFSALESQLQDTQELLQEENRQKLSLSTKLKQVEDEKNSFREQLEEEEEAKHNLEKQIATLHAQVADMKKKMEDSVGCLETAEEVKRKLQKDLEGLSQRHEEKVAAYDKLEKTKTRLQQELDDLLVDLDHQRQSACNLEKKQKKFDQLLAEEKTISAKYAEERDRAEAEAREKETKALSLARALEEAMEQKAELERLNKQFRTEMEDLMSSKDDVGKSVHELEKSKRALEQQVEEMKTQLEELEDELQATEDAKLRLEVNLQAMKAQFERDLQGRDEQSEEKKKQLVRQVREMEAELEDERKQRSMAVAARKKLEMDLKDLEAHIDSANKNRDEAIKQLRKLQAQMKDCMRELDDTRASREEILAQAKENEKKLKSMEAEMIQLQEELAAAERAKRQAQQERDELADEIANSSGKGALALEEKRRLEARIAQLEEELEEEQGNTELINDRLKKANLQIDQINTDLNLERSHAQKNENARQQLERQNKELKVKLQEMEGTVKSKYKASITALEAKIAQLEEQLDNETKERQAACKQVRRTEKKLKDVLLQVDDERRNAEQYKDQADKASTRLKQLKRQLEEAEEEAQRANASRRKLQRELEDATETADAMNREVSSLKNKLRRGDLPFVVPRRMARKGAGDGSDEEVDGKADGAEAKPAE
UniProt P35580: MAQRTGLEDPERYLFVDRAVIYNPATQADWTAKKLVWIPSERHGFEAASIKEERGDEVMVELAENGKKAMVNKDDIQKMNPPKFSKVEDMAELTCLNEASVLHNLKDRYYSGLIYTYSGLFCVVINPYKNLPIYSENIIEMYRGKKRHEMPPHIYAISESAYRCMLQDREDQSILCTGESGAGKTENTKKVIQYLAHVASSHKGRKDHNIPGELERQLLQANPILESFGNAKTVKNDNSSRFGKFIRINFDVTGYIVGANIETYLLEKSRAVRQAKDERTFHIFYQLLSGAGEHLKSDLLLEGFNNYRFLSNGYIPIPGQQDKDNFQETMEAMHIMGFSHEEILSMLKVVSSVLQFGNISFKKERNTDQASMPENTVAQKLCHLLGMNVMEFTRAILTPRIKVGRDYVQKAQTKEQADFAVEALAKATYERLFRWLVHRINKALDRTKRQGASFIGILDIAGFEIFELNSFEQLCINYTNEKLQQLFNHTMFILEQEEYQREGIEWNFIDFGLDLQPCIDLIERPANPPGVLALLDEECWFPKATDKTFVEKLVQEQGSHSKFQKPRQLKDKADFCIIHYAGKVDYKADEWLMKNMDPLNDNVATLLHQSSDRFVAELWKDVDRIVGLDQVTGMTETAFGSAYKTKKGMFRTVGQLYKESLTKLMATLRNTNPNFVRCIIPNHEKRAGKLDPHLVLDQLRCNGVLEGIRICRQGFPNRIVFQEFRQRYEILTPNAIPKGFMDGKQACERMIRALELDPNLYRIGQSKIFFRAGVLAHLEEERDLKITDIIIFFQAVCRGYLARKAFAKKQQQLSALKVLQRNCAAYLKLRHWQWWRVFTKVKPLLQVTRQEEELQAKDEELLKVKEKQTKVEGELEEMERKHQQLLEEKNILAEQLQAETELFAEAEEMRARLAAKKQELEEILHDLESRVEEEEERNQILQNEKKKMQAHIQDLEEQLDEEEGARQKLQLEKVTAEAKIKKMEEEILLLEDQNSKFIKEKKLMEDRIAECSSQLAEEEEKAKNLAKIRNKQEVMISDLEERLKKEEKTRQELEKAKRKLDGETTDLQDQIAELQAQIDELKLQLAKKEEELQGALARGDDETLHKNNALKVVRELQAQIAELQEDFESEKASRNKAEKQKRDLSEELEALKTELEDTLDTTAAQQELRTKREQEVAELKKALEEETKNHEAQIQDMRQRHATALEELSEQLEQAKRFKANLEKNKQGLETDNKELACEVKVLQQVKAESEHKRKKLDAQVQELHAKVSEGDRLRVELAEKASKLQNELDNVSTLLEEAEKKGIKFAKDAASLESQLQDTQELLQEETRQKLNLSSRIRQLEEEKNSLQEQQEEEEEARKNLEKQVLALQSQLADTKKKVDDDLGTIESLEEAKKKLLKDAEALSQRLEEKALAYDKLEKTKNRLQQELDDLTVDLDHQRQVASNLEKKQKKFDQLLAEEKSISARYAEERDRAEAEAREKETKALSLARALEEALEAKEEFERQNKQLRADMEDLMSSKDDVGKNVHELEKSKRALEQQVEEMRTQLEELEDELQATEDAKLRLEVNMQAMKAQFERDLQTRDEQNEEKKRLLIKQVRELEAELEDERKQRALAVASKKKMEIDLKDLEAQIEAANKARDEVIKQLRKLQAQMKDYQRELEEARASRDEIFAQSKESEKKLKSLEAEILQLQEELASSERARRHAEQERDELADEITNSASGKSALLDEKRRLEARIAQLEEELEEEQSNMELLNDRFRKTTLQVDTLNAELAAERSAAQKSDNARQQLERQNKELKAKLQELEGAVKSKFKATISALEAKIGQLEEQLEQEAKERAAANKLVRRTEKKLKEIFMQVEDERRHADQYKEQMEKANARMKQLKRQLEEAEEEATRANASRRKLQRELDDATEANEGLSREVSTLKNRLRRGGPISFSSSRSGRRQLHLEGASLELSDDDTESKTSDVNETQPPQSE

Substance	binding
myosin heavy-chain 9 (MYH9) (from UniProt P35579 1-1960)	binds
myosin heavy-chain 10 (MYH10) (from UniProt P35580 1-1976)	binds
